# Results of single-concentration screens

Amino acid sequences for entries named in this document (tags omitted).
UniProt I6X8D2, whole entry: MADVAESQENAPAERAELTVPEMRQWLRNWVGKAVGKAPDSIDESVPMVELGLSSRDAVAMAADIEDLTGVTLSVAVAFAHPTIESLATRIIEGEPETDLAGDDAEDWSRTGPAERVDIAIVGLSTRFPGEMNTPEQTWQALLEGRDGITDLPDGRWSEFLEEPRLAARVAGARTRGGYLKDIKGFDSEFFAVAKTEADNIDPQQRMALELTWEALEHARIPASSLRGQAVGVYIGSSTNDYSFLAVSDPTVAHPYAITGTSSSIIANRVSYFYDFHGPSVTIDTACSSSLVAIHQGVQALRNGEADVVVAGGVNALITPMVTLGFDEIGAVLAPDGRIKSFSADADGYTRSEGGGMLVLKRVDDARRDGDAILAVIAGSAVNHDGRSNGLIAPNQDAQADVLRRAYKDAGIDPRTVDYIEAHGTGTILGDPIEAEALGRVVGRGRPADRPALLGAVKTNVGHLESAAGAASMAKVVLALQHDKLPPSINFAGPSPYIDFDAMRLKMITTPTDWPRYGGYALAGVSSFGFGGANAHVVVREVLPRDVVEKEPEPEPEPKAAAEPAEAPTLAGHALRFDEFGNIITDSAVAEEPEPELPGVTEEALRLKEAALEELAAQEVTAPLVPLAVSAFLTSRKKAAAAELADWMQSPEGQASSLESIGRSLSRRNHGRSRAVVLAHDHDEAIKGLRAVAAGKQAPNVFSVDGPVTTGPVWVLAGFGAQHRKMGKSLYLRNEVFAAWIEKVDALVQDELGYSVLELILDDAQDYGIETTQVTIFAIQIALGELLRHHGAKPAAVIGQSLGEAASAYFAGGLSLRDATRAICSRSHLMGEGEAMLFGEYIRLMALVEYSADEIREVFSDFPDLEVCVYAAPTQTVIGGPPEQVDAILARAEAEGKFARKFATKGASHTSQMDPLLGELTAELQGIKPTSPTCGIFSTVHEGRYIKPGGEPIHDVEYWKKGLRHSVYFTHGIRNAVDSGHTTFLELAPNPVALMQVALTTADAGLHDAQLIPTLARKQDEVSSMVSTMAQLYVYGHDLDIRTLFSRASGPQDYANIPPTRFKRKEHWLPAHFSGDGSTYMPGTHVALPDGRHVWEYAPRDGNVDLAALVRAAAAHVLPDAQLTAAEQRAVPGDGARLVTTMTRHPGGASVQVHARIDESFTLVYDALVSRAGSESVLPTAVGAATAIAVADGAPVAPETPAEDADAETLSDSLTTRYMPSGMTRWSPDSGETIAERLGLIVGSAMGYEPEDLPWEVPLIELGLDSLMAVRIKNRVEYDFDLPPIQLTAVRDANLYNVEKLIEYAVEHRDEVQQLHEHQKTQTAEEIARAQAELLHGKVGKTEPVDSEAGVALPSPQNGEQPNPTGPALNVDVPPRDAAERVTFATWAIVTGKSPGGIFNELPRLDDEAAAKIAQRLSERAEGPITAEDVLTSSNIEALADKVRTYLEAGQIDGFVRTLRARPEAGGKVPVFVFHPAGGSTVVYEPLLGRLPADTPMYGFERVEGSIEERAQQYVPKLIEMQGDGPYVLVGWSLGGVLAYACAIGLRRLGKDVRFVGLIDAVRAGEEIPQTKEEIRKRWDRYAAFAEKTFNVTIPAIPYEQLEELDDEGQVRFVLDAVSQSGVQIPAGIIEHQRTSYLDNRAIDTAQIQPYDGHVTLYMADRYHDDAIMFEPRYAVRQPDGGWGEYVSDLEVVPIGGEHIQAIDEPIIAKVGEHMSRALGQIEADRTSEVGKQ
UniProt P9WNZ1, whole entry: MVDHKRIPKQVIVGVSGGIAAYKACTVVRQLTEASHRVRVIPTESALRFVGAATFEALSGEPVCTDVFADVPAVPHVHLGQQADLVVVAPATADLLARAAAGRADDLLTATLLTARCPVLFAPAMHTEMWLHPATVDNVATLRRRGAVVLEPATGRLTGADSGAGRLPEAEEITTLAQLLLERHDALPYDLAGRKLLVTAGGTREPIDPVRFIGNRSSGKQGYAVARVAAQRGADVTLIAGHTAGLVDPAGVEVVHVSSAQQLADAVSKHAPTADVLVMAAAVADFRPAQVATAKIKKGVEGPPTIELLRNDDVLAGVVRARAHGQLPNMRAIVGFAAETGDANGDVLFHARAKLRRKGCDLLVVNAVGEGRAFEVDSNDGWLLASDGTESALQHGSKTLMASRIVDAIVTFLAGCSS
UniProt P9WPC5, whole entry: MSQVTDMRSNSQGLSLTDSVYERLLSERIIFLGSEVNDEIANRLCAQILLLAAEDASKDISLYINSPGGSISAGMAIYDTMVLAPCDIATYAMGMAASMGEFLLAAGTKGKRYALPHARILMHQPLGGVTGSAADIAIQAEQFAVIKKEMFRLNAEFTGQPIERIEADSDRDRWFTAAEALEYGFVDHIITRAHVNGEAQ
UniProt P9WPC3, whole entry partner: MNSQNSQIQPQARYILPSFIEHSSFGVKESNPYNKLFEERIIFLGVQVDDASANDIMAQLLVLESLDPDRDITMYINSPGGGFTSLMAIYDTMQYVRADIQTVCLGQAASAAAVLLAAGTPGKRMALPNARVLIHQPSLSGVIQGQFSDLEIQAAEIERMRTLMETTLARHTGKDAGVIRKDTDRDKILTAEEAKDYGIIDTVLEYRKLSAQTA
UniProt P9WFT3, whole entry: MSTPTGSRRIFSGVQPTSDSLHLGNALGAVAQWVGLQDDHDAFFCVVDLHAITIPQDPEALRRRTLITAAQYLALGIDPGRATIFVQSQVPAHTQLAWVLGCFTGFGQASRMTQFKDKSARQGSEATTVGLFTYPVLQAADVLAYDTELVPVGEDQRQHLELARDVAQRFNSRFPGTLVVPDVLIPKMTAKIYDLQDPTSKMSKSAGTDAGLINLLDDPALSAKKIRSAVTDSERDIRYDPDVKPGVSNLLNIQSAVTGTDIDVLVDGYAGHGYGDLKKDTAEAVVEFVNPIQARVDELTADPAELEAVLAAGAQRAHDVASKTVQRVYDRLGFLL

Data taken from ChEMBL document CHEMBL3988442, “University of Dundee, Small-Polar-MMV Screening Library” (2021).

Pks13 thioesterase: 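Polyketide synthase Pks13, Mycobacterium tuberculosis (UniProt I6X8D2). Enzyme assay of the thioesterase domain of polyketide synthase 13; the read-out is not stated. Tested at 30 µM. Higher reads as stronger inhibition (inferred from which compounds were picked for retests). Of about 67,000 compounds tested this way, about 300 (0.46%) reached 50% or more in at least one test.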
Toxoplasma: 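Assay of Toxoplasma gondii numbers, read through their beta-galactosidase reporter with a colour substrate. Compounds at 10 µM. The record gives no direction; the compounds picked for IC50 retests had high values, so higher reads as fewer parasites. Size under these conditions: about 67,000 compounds, about 260 of them at 50% or above in at least one test.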
CoaBC: 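Enzyme assay of CoaBC with a phosphate dye (Biomol Green) read at 650 nm. Target: Coenzyme A biosynthesis protein CoaBC, Mycobacterium tuberculosis (UniProt P9WNZ1). Compounds at 30 µM. Direction is inferred from only a few compounds that gave an IC50; most scored high, so higher reads as stronger inhibition. Most strong results did not repeat in a second test. About 67,000 compounds were tested under these conditions; 0.06% (about 40) showed 50% or more at least once.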
ClpP1P2: 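Protease assay of ClpP1P2, read by the AMC dye that it sets free. Target: ClpP1P2, Mycobacterium tuberculosis (UniProt P9WPC5 and UniProt P9WPC3). Compounds at 50 µM. Higher reads as stronger inhibition, judged from the few compounds that gave an IC50. Most other retested compounds had strongly negative values. About 69,000 compounds were tested under these conditions; 0.015% (about 10) showed 50% or more at least once.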
Leishmania in macrophages: 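Cell assay of Leishmania donovani living inside macrophages; the read-out is not stated. Tested at 30 µM. Direction is inferred from retests: higher values go with stronger inhibition. Size under these conditions: about 69,000 compounds, about 1,000 of them at 50% or above in at least one test.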
MtTrpRS: 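Tryptophan-tRNA ligase, Mycobacterium tuberculosis (UniProt P9WFT3). Enzyme assay of tryptophanyl-tRNA synthetase; the read-out is not stated. Tested at 10 µM. Direction is not recorded; retested compounds ran higher, which suggests that high means inhibition. Of about 65,000 compounds tested this way, about 64 (0.098%) reached 50% or more in at least one test.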

Results are given as percent effect.
The record does not define 0% and 100%; most values in the screen are far below 50% and negative numbers occur (in some assays of this library far below -100).
This is an unselected part of the compounds tested.
Two or more numbers in one place are separate tests of the same structure; such repeats can differ widely.

* [H][C@@]12COC[C@]1(CNS(C)(=O)=O)CN(C(=O)c1ccncn1)C2 : Toxoplasma: 3.837%; Leishmania in macrophages: -5.63% & 8.006%
* Cc1noc(C)c1C(=O)NCc1cc[nH]n1 : Pks13 thioesterase: -8.272%; Toxoplasma: -1.857%; CoaBC: -1.583%; ClpP1P2: -0.2935%; Leishmania in macrophages: -13.36%; MtTrpRS: -1.002%
* Nc1nc(N)c2c(n1)OC1(CCN(C(=O)CC3CCCNC3)CC1)C2 (configuration not stated) : Pks13 thioesterase: -11.73%; Toxoplasma: -1.679%; CoaBC: -1.435%; ClpP1P2: -24.32%; Leishmania in macrophages: 17.22%; MtTrpRS: -6.51%
* Cc1nnc(Nc2cccc(C3CCN(Cc4ncc[nH]4)CC3)n2)s1 : Pks13 thioesterase: -20.22%; Toxoplasma: 4.134%; CoaBC: -0.3708%; ClpP1P2: 4.636%; Leishmania in macrophages: -4.437%; MtTrpRS: 40.63%
* Cc1cc(=O)c(C(=O)N2CCN(C)c3ccccc3C2)c[nH]1 : Pks13 thioesterase: -4.863%; Toxoplasma: 15.58%; CoaBC: 3.802%; ClpP1P2: -8.151%; Leishmania in macrophages: -29.42%; MtTrpRS: -0.2937%
* CCC(C(=O)N1CCCN(CCN(C)C)CC1)N1CCCC1=O (configuration not stated) : Pks13 thioesterase: -6.726%; Toxoplasma: 3.797%; CoaBC: -2.947%; ClpP1P2: 6.271%; Leishmania in macrophages: -3.575%; MtTrpRS: 0.3112%
* O=C(c1cn(-c2cc(N3CCSCC3)ncn2)cn1)N1CCOCC1 : Pks13 thioesterase: -5.338%; Toxoplasma: -14.43%; CoaBC: -0.6242%; ClpP1P2: -2.45%; Leishmania in macrophages: -0.5411%; MtTrpRS: 0.9382%
* CC(C)(C)NC(=O)N1CCC(NC(=O)Cc2cccnc2)CC1 : Toxoplasma: -2.973%; CoaBC: 0.9677%; ClpP1P2: -7.162%; Leishmania in macrophages: 29.38%; MtTrpRS: 0.8227%
* OC1(CN2CCCC(Cn3cncn3)C2)CCCCC1 (configuration not stated) : Pks13 thioesterase: -16.99%; Toxoplasma: 3.856%; CoaBC: 2.679%; ClpP1P2: 11.14%; Leishmania in macrophages: 12.78%; MtTrpRS: -1.754%
* O=S(=O)(Cc1ccccc1F)Cc1nnnn1C1CC1 : Pks13 thioesterase: -8.137%; Toxoplasma: -10.03%; CoaBC: 1.453%; ClpP1P2: -4.967%; Leishmania in macrophages: 42.75%; MtTrpRS: -1.708%
* COc1ccc(NC(=O)N2CCC(c3nnc[nH]3)CC2)cc1C : Pks13 thioesterase: -39.17%; Toxoplasma: 1.834%; CoaBC: 7.438%; ClpP1P2: -1.788%; Leishmania in macrophages: -5.167%; MtTrpRS: -3.578%
* CC(C)C(NC(N)=O)C(=O)N1CCN(c2ccccc2Cl)C(=O)C1 (configuration not stated) : Pks13 thioesterase: -11.37%; Toxoplasma: -6.809%; CoaBC: -2.481%; ClpP1P2: -2.071%; Leishmania in macrophages: 10.93%; MtTrpRS: 0.9518%
* CC(=O)N1N=C(c2ccccc2)OC1C(=O)NCCOc1ccccc1 (configuration not stated) : Pks13 thioesterase: -5.278%; Toxoplasma: 0.02689%; CoaBC: -0.2427%; ClpP1P2: 3.406%; Leishmania in macrophages: 29.7%
* [H][C@]12CCN[C@@]1([H])CN(C(=O)CCC(C)C)C2 : Toxoplasma: -7.554%; Leishmania in macrophages: 35.31%
* Cn1cccc1C(=O)NC1(C(=O)NCC2CC2)CCCC1 : Pks13 thioesterase: 7.945%; Toxoplasma: -0.5853%; CoaBC: -3.944%; ClpP1P2: -9.176%; Leishmania in macrophages: 25.26%; MtTrpRS: 2.524%